Laboratory results from the supplement of paper PMC10849652.
Some of the results follow.

Sequences of proteins named here, by UniProt entry; tags and fusion partners are left off. A change or cut given only in a name is not applied to a line headed by its entry.
UniProt Q9H910: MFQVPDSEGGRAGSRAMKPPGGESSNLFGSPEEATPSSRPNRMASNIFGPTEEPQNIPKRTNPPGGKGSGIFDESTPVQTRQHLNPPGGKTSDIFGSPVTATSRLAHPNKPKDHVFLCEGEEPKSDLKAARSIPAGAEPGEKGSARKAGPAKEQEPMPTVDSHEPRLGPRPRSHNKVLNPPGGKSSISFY
UniProt Q15046, whole entry, looked up: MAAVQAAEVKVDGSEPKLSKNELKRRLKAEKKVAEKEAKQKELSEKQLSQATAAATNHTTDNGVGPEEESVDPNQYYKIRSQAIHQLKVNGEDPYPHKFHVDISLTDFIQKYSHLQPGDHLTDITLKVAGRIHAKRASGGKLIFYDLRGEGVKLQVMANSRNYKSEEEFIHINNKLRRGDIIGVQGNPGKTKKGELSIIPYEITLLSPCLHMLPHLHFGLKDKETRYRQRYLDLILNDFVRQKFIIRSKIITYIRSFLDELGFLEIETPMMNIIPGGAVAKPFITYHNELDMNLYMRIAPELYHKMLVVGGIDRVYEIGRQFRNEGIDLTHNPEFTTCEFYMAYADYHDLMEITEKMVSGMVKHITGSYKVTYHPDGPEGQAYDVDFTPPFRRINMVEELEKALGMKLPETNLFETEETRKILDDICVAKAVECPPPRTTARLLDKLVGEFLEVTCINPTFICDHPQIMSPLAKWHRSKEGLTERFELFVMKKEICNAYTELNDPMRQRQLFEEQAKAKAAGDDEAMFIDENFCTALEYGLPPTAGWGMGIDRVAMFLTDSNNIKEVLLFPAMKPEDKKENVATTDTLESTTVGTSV
UniProt Q9UK76: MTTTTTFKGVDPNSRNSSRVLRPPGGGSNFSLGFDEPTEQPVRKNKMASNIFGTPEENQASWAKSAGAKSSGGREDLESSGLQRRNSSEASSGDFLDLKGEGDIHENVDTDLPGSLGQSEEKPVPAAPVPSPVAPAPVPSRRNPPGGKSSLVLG
UniProt O76095: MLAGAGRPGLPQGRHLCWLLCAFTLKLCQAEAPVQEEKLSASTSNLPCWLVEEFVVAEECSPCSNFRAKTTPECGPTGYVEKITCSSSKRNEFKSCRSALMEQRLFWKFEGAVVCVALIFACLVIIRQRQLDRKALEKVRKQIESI
UniProt Q7LBC6: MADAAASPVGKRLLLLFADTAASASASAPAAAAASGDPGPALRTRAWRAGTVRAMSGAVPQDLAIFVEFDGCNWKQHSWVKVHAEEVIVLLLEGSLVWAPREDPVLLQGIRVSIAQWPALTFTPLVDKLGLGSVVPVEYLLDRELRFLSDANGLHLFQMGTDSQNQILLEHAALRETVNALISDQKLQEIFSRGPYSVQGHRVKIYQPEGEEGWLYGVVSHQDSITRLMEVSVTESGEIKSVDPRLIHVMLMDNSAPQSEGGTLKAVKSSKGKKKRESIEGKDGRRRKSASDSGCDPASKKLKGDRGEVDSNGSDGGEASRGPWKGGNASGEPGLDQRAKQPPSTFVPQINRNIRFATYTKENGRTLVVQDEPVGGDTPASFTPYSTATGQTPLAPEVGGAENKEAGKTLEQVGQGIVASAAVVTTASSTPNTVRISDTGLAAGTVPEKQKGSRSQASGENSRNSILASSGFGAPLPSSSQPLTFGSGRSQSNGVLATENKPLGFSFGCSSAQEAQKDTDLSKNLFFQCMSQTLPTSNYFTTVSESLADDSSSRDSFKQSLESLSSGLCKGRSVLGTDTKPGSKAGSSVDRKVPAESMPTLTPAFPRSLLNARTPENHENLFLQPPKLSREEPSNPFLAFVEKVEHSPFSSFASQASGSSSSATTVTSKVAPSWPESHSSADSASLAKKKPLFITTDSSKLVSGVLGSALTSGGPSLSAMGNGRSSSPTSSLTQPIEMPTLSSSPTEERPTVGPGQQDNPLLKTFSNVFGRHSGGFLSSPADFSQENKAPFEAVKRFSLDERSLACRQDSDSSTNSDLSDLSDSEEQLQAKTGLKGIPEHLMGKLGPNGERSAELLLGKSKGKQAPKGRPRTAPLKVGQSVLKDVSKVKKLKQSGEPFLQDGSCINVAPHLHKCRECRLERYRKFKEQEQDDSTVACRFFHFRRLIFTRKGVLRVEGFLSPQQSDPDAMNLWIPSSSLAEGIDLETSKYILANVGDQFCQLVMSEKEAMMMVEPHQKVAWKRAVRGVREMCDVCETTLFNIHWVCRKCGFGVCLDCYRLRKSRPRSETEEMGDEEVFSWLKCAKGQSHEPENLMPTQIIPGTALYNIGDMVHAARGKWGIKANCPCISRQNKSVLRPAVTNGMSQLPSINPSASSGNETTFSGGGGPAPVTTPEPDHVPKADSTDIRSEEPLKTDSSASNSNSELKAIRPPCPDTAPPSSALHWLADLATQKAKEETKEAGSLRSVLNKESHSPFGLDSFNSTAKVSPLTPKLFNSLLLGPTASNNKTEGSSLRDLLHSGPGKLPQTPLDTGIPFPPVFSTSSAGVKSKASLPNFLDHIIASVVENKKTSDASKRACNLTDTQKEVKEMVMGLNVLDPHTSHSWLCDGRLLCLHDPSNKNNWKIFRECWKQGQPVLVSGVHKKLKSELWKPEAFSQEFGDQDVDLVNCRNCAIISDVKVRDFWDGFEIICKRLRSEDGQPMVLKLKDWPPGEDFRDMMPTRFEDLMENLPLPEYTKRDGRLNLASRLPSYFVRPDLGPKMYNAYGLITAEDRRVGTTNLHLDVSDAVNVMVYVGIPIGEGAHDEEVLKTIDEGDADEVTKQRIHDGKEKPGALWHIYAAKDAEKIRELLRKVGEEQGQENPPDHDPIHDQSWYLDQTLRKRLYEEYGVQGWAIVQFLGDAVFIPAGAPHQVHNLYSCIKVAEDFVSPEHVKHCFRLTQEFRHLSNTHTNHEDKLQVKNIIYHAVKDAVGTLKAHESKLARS
UniProt Q96DU7: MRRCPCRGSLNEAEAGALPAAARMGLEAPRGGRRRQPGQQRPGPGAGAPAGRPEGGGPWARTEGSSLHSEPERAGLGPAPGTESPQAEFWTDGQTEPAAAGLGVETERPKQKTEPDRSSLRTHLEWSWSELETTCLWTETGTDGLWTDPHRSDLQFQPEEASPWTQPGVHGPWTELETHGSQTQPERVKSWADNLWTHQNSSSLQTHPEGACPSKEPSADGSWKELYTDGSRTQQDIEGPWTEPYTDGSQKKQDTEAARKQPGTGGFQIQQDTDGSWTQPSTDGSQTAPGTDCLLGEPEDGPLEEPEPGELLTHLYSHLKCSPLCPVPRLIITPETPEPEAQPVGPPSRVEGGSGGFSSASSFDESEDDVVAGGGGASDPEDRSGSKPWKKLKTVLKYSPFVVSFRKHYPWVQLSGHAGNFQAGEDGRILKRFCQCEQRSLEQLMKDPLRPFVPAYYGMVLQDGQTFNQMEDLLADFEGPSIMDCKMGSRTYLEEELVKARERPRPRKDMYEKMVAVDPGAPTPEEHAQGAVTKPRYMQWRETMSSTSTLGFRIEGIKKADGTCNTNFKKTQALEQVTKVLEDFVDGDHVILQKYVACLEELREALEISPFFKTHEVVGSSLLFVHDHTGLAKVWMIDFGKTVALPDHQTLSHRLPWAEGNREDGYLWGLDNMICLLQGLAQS
UniProt Q68E01, whole entry, looked up: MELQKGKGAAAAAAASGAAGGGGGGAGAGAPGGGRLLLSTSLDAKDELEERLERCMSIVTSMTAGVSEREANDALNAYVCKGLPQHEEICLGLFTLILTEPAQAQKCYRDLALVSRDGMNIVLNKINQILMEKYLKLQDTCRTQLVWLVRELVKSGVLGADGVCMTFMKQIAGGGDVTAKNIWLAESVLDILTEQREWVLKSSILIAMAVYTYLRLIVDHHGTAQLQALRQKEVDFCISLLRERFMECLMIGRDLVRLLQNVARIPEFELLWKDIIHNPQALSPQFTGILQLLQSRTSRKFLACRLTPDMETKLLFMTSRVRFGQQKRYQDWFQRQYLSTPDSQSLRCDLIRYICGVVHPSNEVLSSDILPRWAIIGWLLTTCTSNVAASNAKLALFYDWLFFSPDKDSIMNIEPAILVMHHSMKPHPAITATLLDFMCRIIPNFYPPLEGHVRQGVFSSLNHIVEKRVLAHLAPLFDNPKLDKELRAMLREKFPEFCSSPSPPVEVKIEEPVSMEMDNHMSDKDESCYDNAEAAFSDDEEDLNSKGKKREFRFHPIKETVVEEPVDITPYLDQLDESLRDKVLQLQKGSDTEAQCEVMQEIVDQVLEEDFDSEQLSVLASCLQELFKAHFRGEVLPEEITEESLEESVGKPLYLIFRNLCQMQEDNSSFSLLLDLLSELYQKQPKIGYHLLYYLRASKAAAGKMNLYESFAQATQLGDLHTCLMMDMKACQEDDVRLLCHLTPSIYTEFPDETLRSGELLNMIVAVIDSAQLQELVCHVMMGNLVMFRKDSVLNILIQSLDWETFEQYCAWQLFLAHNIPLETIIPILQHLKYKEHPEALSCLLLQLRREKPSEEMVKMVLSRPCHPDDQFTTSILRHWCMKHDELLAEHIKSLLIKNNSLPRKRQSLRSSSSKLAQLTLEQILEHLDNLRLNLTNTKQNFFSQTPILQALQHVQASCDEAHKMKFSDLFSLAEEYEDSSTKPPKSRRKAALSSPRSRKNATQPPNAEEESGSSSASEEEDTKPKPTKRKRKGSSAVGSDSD
UniProt Q9H3F6: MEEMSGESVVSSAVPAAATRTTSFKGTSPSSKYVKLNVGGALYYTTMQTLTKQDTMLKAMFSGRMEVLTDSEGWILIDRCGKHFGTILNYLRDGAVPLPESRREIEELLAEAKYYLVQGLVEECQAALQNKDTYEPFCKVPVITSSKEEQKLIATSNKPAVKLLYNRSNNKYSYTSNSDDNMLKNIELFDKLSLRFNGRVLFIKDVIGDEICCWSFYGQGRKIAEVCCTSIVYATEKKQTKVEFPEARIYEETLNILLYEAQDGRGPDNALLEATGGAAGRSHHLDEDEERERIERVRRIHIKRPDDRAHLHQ
UniProt Q9NZM3: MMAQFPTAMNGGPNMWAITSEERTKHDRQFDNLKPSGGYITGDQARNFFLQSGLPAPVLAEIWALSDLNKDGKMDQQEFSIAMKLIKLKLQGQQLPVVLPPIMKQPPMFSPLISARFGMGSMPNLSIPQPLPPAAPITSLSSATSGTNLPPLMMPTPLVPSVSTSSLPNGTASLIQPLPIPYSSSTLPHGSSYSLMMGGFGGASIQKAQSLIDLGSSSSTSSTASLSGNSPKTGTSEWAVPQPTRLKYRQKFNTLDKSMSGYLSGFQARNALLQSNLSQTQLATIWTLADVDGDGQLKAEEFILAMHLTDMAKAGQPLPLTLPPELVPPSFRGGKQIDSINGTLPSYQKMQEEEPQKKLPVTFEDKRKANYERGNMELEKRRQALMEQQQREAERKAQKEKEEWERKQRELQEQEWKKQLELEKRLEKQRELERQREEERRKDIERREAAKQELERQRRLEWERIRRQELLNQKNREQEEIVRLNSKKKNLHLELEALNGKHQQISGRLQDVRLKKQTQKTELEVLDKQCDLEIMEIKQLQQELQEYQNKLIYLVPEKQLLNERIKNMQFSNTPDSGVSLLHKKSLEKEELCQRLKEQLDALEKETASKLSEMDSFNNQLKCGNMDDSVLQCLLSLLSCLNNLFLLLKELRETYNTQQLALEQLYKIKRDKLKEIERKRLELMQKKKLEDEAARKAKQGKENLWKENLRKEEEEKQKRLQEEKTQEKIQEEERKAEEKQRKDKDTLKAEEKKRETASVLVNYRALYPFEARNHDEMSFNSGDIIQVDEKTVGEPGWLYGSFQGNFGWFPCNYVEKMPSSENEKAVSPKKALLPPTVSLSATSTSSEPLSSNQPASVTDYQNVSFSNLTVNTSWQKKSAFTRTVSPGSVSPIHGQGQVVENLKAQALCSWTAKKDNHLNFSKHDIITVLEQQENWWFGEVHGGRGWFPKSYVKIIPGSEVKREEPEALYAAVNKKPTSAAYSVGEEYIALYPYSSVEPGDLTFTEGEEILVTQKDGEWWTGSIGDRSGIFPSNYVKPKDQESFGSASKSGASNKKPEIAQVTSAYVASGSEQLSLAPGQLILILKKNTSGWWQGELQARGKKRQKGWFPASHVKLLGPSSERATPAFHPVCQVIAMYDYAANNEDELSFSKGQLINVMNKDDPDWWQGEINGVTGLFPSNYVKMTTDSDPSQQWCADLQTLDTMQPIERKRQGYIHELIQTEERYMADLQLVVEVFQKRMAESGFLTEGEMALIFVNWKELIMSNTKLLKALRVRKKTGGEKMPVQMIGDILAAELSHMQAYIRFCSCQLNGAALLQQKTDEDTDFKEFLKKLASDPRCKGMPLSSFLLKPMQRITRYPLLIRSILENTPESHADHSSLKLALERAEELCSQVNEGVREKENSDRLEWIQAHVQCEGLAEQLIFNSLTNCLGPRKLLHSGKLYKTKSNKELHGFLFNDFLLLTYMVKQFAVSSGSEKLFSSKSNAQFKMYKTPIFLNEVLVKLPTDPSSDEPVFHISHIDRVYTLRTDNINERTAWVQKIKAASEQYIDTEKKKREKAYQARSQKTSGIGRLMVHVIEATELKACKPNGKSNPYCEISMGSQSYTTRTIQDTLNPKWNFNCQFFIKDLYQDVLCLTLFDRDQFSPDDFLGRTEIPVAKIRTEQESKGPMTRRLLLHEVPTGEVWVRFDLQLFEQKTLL

Columns and labels:
Assay in all cases: log2 fold change, soluble protein after heating vs DMSO (PISA); higher = thermal stabilisation; K562 lysate, 10 uM; active = over 0.2 and 3.5 SD of the protein, either way, in both replicates (recomputed)
[1] = compound: C1=CC=C(C=C1)[C@H](COC2=CC3=C(C=C2)NC(=O)N3)NC(=O)C4=CC=CN(C4=O)CC5=CC(=C(C=C5)F)F
Outline: (§1)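 Soluble protein was defined as the supernatant remaining after 21,000xg for 90 min, following pooling of heated aliquots and adjustment to 0.5% NP-40 at 4°C. Before that, crude K562 extract at 1 mg/mL protein in PBS pH 7.4 with 1 mM MgCl2 was treated with 10 μM compound for 30 min and heated for 3 min across 48°C-58°C. Quantification used TMTpro 16plex LC-MS/MS with channel sums equalised, and values are log-two fold changes in thermal stability relative to solvent controls from duplicates.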

[2] = compound: CC1=C(SC2=C1C(=N[C@H](C3=NN=C(N32)C)CC(=O)N)C4=CC=C(C=C4)Cl)C
Outline: as §1

[3] = compound: CC1=C2C(=CC=C1)N=C(N(C2=O)C3=CC=CC=C3C)CN4C=NC5=C(N=CN=C54)N
Outline: as §1

[4] = compound: Cc1sc2c(c1C)C(c1ccc(Cl)cc1)=N[C@@H](CC(=O)OC(C)(C)C)c1nnc(C)n1-2
Outline: as §1

[5] = compound: c1ccc([C@@H]2C[C@H]2NC2CCNCC2)cc1
Outline: as §1

Row | Target | log2 fold change [1] | log2 fold change [2] | log2 fold change [3] | log2 fold change [4] | log2 fold change [5]
1 | KDELR2 (UniProt P33947) | inactive: -0.038 | inactive: -0.069 | inactive: 0.317 | inactive: -0.109 | inactive: -0.19
2 | ITGAV (UniProt P06756) | inactive: 0.041 | inactive: -0.009 | inactive: 0.013 | inactive: -0.069 | inactive: -0.009
3 | INTS5 (UniProt Q6P9B9) | inactive: -0.086 | inactive: -0.034 | inactive: -0.019 | inactive: 0.015 | inactive: 0.127
4 | INTS9 (UniProt Q9NV88) | inactive: 0.004 | inactive: -0.009 | inactive: -0.05 | inactive: -0.01 | inactive: 0.005
5 | IQGAP1 (UniProt P46940) | inactive: -0.004 | inactive: 0.008 | inactive: -0.028 | inactive: -0.015 | inactive: 0.035
6 | JMJD4 (UniProt Q9H9V9) | inactive: 0.057 | inactive: -0.067 | inactive: -0.014 | inactive: -0.093 | inactive: 0.025
7 | ITCH (UniProt Q96J02) | inactive: -0.073 | inactive: -0.018 | inactive: 0.035 | inactive: -0.071 | inactive: 0.002
8 | KAT5 isoform 3 (UniProt Q92993) | inactive: 0.026 | inactive: -0.026 | inactive: 0.065 | inactive: 0.058 | inactive: 0.016
9 | KCNK5 (UniProt O95279) | inactive: 0.157 | inactive: 0 | inactive: 0.296 | inactive: -0.394 | inactive: -0.316
10 | INTS7 (UniProt Q9NVH2) | inactive: -0.06 | inactive: 0.007 | inactive: 0.016 | inactive: 0.009 | inactive: -0.001
11 | ITSN1 isoform 8 (UniProt Q15811) | inactive: 0.08 | inactive: -0.067 | inactive: -0.009 | inactive: 0.048 | inactive: 0.001
12 | JPT2 isoform 3 (UniProt Q9H910) | inactive: 0.014 | inactive: 0.002 | inactive: -0.025 | inactive: 0.009 | inactive: -0.003
13 | JAK1 (UniProt P23458) | inactive: 0.057 | inactive: -0.15 | inactive: 0.034 |  | 
14 | KAT14 (UniProt Q9H8E8) | inactive: 0.109 | inactive: 0.037 | inactive: 0.107 |  | 
15 | IP6K1 (UniProt Q92551) | inactive: 0.013 | inactive: 0.113 | inactive: -0.068 | inactive: 0.01 | inactive: -0.165
16 | KARS1 (UniProt Q15046) | inactive: 0.005 | inactive: 0.019 | inactive: 0.002 | inactive: 0.045 | inactive: 0.045
17 | ITM2B (UniProt Q9Y287) | inactive: -0.019 | inactive: -0.032 | active: 0.43 | inactive: 0.058 | inactive: -0.027
18 | IQCD (UniProt Q96DY2) | inactive: -0.113 | inactive: 0 |  |  | 
19 | JAGN1 (UniProt Q8N5M9) | inactive: 0.064 | inactive: -0.077 | inactive: -0.029 | inactive: -0.024 | inactive: -0.008

Taken from the listing for reference:
Row | Target | log2 fold change [1] | log2 fold change [2] | log2 fold change [3] | log2 fold change [4] | log2 fold change [5]
4 | INTS9 (UniProt Q9NV88) | inactive: 0.004 | inactive: -0.009 | inactive: -0.05 | inactive: -0.01 | inactive: 0.005
5 | IQGAP1 (UniProt P46940) | inactive: -0.004 | inactive: 0.008 | inactive: -0.028 | inactive: -0.015 | inactive: 0.035
6 | JMJD4 (UniProt Q9H9V9) | inactive: 0.057 | inactive: -0.067 | inactive: -0.014 | inactive: -0.093 | inactive: 0.025
7 | ITCH (UniProt Q96J02) | inactive: -0.073 | inactive: -0.018 | inactive: 0.035 | inactive: -0.071 | inactive: 0.002
8 | KAT5 isoform 3 (UniProt Q92993) | inactive: 0.026 | inactive: -0.026 | inactive: 0.065 | inactive: 0.058 | inactive: 0.016
9 | KCNK5 (UniProt O95279) | inactive: 0.157 | inactive: 0 | inactive: 0.296 | inactive: -0.394 | inactive: -0.316
10 | INTS7 (UniProt Q9NVH2) | inactive: -0.06 | inactive: 0.007 | inactive: 0.016 | inactive: 0.009 | inactive: -0.001
11 | ITSN1 isoform 8 (UniProt Q15811) | inactive: 0.08 | inactive: -0.067 | inactive: -0.009 | inactive: 0.048 | inactive: 0.001
12 | JPT2 isoform 3 (UniProt Q9H910) | inactive: 0.014 | inactive: 0.002 | inactive: -0.025 | inactive: 0.009 | inactive: -0.003
13 | JAK1 (UniProt P23458) | inactive: 0.057 | inactive: -0.15 | inactive: 0.034 |  | 
14 | KAT14 (UniProt Q9H8E8) | inactive: 0.109 | inactive: 0.037 | inactive: 0.107 |  | 
15 | IP6K1 (UniProt Q92551) | inactive: 0.013 | inactive: 0.113 | inactive: -0.068 | inactive: 0.01 | inactive: -0.165
16 | KARS1 (UniProt Q15046) | inactive: 0.005 | inactive: 0.019 | inactive: 0.002 | inactive: 0.045 | inactive: 0.045

Next entries.

Row | Target | log2 fold change [1] | log2 fold change [2] | log2 fold change [3] | log2 fold change [4] | log2 fold change [5]
20 | KAZN (UniProt Q674X7) | inactive: 0.085 | inactive: 0.019 | inactive: 0.054 | inactive: -0.055 | inactive: 0.012
21 | KBTBD7 (UniProt Q8WVZ9) | inactive: -0.061 | inactive: 0.034 | inactive: 0.022 | inactive: -0.033 | 
22 | ITPKA (UniProt P23677) | inactive: -0.022 | inactive: 0.006 | inactive: -0.017 | inactive: -0.012 | inactive: -0.013
23 | JPT1 (UniProt Q9UK76) | inactive: 0.057 | inactive: -0.065 | inactive: -0.026 | inactive: -0.057 | inactive: -0.018
24 | KDELR1 (UniProt P24390) | inactive: -0.155 | inactive: -0.179 | inactive: 0.02 | inactive: 0.007 | inactive: -0.131
25 | ITIH4 (UniProt Q14624) | inactive: -0.002 | inactive: -0.011 | inactive: -0.117 | inactive: -0.237 | inactive: -0.105
26 | IPO5 isoform 3 (UniProt O00410) | inactive: 0.007 | inactive: -0.008 | inactive: 0.004 | inactive: 0.007 | inactive: 0.032
27 | ITGB1 (UniProt P05556) | inactive: 0.026 | inactive: -0.001 | inactive: -0.011 | inactive: -0.048 | inactive: 0.019
28 | JTB (UniProt O76095) | inactive: 0.084 | inactive: 0.134 | inactive: -0.034 | inactive: 0.016 | 
29 | INTS8 (UniProt Q75QN2) | inactive: 0.021 | inactive: -0.085 | inactive: -0.002 | inactive: 0.023 | inactive: 0.081
30 | ITIH3 (UniProt Q06033) | inactive: -0.014 | inactive: 0.107 |  |  | 
31 | KDM3B (UniProt Q7LBC6) | inactive: -0.023 | inactive: 0.017 | inactive: 0.027 | inactive: 0.029 | inactive: 0
32 | IPO8 (UniProt O15397) | inactive: -0.004 | inactive: 0.014 | inactive: 0.03 | inactive: -0.005 | inactive: 0.053
33 | INTS6 (UniProt Q9UL03) | inactive: 0.078 | inactive: 0.052 | inactive: 0.05 | inactive: -0.051 | inactive: 0.05
34 | KDF1 (UniProt Q8NAX2) | inactive: -0.036 | inactive: 0.126 | inactive: -0.246 |  | 
35 | IRF3 (UniProt Q14653) | inactive: 0.036 | inactive: -0.011 | inactive: 0.005 | inactive: 0.004 | inactive: 0.052
36 | KCMF1 (UniProt Q9P0J7) | inactive: 0.055 | inactive: 0.008 | inactive: 0.025 | inactive: -0.009 | inactive: -0.052
37 | KCTD21 (UniProt Q4G0X4) | inactive: -0.15 | inactive: -0.086 | inactive: 0.137 |  | 
38 | ISOC1 (UniProt Q96CN7) | inactive: -0.025 | inactive: 0.024 | inactive: -0.042 | inactive: -0.009 | inactive: 0.006

Row | Target | log2 fold change [1] | log2 fold change [2] | log2 fold change [3] | log2 fold change [4] | log2 fold change [5]
39 | IRGQ (UniProt Q8WZA9) | inactive: 0.004 | inactive: 0.002 | inactive: 0 | inactive: -0.01 | inactive: -0.021
40 | ITPKC (UniProt Q96DU7) | inactive: -0.085 | inactive: -0.027 | inactive: -0.013 | inactive: -0.018 | inactive: -0.139
41 | KCNK1 (UniProt O00180) | inactive: -0.17 | inactive: 0.134 | inactive: 0.201 | inactive: 0.155 | inactive: -0.115
42 | KCT2 (UniProt Q8NC54) | inactive: 0.069 | inactive: -0.008 | inactive: -0.05 | inactive: -0.033 | inactive: -0.173
43 | INTS2 (UniProt Q9H0H0) | inactive: -0.024 | inactive: 0.049 | inactive: -0.042 | inactive: 0.041 | inactive: 0.065
44 | IQGAP2 (UniProt Q13576) | inactive: -0.013 | inactive: -0.04 | inactive: -0.029 | inactive: 0.004 | inactive: 0.023
45 | JMJD1C (UniProt Q15652) | inactive: 0.081 | inactive: -0.003 | inactive: -0.012 | inactive: 0.074 | inactive: 0.021
46 | IVNS1ABP (UniProt Q9Y6Y0) | inactive: 0.032 | inactive: 0.069 | inactive: 0.026 | inactive: 0.072 | inactive: 0.002
47 | KDM1A (UniProt O60341) | inactive: 0.007 | inactive: -0.004 | inactive: 0.018 | inactive: 0.009 | active: 0.817
48 | ITGA5 (UniProt P08648) | inactive: 0.004 | inactive: 0.01 | inactive: 0.009 | inactive: -0.011 | inactive: -0.013
49 | INTS3 (UniProt Q68E01) | inactive: 0.017 | inactive: 0.063 | inactive: -0.043 | inactive: -0.06 | inactive: 0.074
50 | IPO4 isoform 2 (UniProt Q8TEX9) | inactive: 0.018 | inactive: 0.017 | inactive: 0.008 | inactive: -0.002 | inactive: -0.029
51 | IPO7 (UniProt O95373) | inactive: -0.007 | inactive: 0.032 | inactive: 0.009 | inactive: -0.007 | inactive: -0.062
52 | KCTD10 (UniProt Q9H3F6) | inactive: 0.049 | inactive: 0.018 | inactive: -0.036 | inactive: -0.001 | inactive: 0.057
53 | ITGB5 (UniProt P18084) | inactive: 0.018 | inactive: -0.051 | inactive: -0.038 | inactive: 0.007 | inactive: 0.002
54 | ITFG1 (UniProt Q8TB96) | inactive: -0.088 | inactive: 0.018 | inactive: 0.034 | inactive: 0.001 | inactive: 0.017
55 | ITPK1 (UniProt Q13572) | inactive: 0.03 | inactive: -0.071 | inactive: -0.019 | inactive: 0.046 | inactive: 0.054
56 | ITSN2 (UniProt Q9NZM3) | inactive: -0.003 | inactive: 0.02 | inactive: -0.021 | inactive: -0.042 | inactive: 0.04
